The list shows only some results of the screen, not a fair sample: it gathers tests that were run many times, whatever their T/C, doses with no T/C, and many T/C values between a quarter and a half above the control. Other doses and runs of a compound stand elsewhere. T/C is the treated group as % of the vehicle group. Some doses have a count of surviving animals in place of a T/C: the source files T/C as zero there, which appears to mark a toxic dose or a test without result, not a measured value. Some doses without a T/C left all or most animals alive at the check, yet need not have been tolerated: survival well below the control is almost never listed, so the zero probably covers shortened survival too. Counts of survivors are from the toxicity check (mostly the fifth day) where no day follows; animals may have died later. Schedules are NCI's codes, read here as Q, the interval in days (D) or hours (H), X, the number of doses. Some entries were tested several times; the results are listed from low to high. Where survival is the endpoint, the PubChem record calls one and a half times the control and up active, and a quarter to a half above the control has no call in these data; cut-offs in other NCI protocols can differ. Some T/C values are followed by the survivors on the day toxicity was checked, most often the fifth; without a count, all were alive then.
Tested on: P388 leukemia ip, CD2F1 mice, survival T/C
Test: NCI In Vivo Anticancer Drug Screen. Data for tumor model P388 Leukemia (intraperitoneal) in CD2F1 (CDF1) mice
Conditions: T/C endpoint: median survival time, higher T/C = longer survival
[1] = dose: 100.0 mg/kg/injection, schedule: Q01DX005 (ip), vehicle: saline with Tween-80
[2] = dose: 200.0 mg/kg/injection, schedule: Q01DX005 (ip), vehicle: saline with Tween-80
[3] = dose: 400.0 mg/kg/injection, schedule: Q01DX009 (ip), vehicle: saline with Tween-80
[4] = dose: 240.0 mg/kg/injection, schedule: Q01DX005 (ip), vehicle: saline with Tween-80
[5] = dose: 50.0 mg/kg/injection, schedule: Q01DX009 (ip), vehicle: saline with Tween-80
[6] = dose: 100.0 mg/kg/injection, schedule: Q01DX009 (ip), vehicle: saline with Tween-80
[7] = dose: 200.0 mg/kg/injection, schedule: Q01DX009 (ip), vehicle: saline with Tween-80
[8] = dose: 120.0 mg/kg/injection, schedule: Q01DX005 (ip), vehicle: Klucel (hydroxypropylcellulose) (HPC)
[9] = dose: 240.0 mg/kg/injection, schedule: Q01DX005 (ip), vehicle: Klucel (hydroxypropylcellulose) (HPC)
[10] = dose: 25.0 mg/kg/injection, schedule: Q01DX009 (ip), vehicle: saline with Tween-80

Compound: CCOC(=O)Nc1nc2ccccc2n1CN1CCN(c2ccccc2)CC1
- survivor count (dose: 200.0 mg/kg/injection, schedule: Q01DX005 (ip), vehicle: Klucel (hydroxypropylcellulose) (HPC)): 5 of 6

Compound: O=C(O)Cc1ccc2c(c1O)C(=O)c1ccccc1C2=O
- survivor count [1]: 3 of 6
- survivor count [2]: 0 of 6

Compound: CCN(CC)Cc1c(O)c(N=Nc2cccc3ccccc23)cc2ccccc12
- survivor count (dose: 25.0 mg/kg/injection, schedule: Q01DX009 (ip), vehicle: Klucel (hydroxypropylcellulose) (HPC)): 6 of 6
- survivor count (dose: 50.0 mg/kg/injection, schedule: Q01DX009 (ip), vehicle: Klucel (hydroxypropylcellulose) (HPC)): 0 of 6 and 3 of 6
- survivor count (dose: 100.0 mg/kg/injection, schedule: Q01DX009 (ip), vehicle: Klucel (hydroxypropylcellulose) (HPC)): 0 of 6
- survivor count (dose: 200.0 mg/kg/injection, schedule: Q01DX009 (ip), vehicle: Klucel (hydroxypropylcellulose) (HPC)): 0 of 6

Compound: CCCCCCN=Cc1c(O)c(O)c(C(C)C)c2cc(C)c(-c3c(C)cc4c(C(C)C)c(O)c(O)c(C=NCCCCCC)c4c3O)c(O)c12
- survivor count (dose: 50.0 mg/kg/injection, schedule: Q01DX005 (ip), vehicle: saline with Tween-80): 5 of 5
- survivor count [1]: 5 of 5
- survivor count [2]: 5 of 5

Compound: CCCC(=O)OCc1cc(=O)n(C)c2c3c4c(cc12)c(C)cc(=O)n4CO3
- T/C (dose: 6.25 mg/kg/injection, schedule: Q01DX009 (ip), vehicle: other): 148 % of control
- T/C (dose: 12.5 mg/kg/injection, schedule: Q01DX009 (ip), vehicle: other): 143 % of control
- survivor count (dose: 50.0 mg/kg/injection, schedule: Q01DX009 (ip), vehicle: other): 3 of 3
- survivor count (dose: 100.0 mg/kg/injection, schedule: Q01DX009 (ip), vehicle: other): 2 of 6 and 2 of 3
- survivor count (dose: 200.0 mg/kg/injection, schedule: Q01DX009 (ip), vehicle: other): 0 of 6

Compound: Cn1c(N)c(C(=O)Nc2ccccc2)c(=O)n(C)c1=O
- survivor count (dose: 400.0 mg/kg/injection, schedule: Q01DX001 (ip), vehicle: Klucel (hydroxypropylcellulose) (HPC)): 6 of 6

Compound: C=CC(=C)CCC=C(C)C
- survivor count [3]: 3 of 6

Compound: C=C(C)C12CC(C)C34OC(CCCCCCCCCCC)(OC1C3C1OC1(CO)C(O)C1(O)C(=O)C(C)=CC14C)O2 (configuration not stated)
- survivor count (dose: 0.25 mg/kg/injection, schedule: Q01DX009 (ip), vehicle: other): 6 of 6
- survivor count (dose: 0.5 mg/kg/injection, schedule: Q01DX009 (ip), vehicle: other): 0 of 6
- survivor count (dose: 1.0 mg/kg/injection, schedule: Q01DX009 (ip), vehicle: other): 0 of 6
- T/C (dose: 100.0 micrograms/kg/injection, schedule: Q01DX009 (ip), vehicle: other): 126 % of control
- T/C (dose: 200.0 micrograms/kg/injection, schedule: Q01DX009 (ip), vehicle: other): 131 % of control

Compound: Cc1cc(Nc2ccc(N(CCCl)CCCl)cc2)c(C)cc1O
- T/C (dose: 100.0 mg/kg/injection, schedule: Q04DX003 (ip), vehicle: Klucel (hydroxypropylcellulose) (HPC)): 137 % of control [5 of 6 alive]
- survivor count (dose: 400.0 mg/kg/injection, schedule: Q04DX003 (ip), vehicle: Klucel (hydroxypropylcellulose) (HPC)): 4 of 6

Compound: C[S+](C)c1ccccc1NC(C)(C)C
- survivor count (dose: 50.0 mg/kg/injection, schedule: Q01DX009 (ip), vehicle: saline): 3 of 6
- survivor count (dose: 100.0 mg/kg/injection, schedule: Q01DX009 (ip), vehicle: saline): 2 of 6

Compound: O=c1oc2ccc(Br)cc2cc1-n1nnc2ccccc21
- survivor count (dose: 60.0 mg/kg/injection, schedule: Q01DX005 (ip), vehicle: saline with Tween-80): 6 of 6
- survivor count [4]: 4 of 6

Compound: Clc1ccc(N=C(SSC(Cl)(Cl)Cl)SSC(Cl)(Cl)Cl)cc1
- T/C [5]: 133 % of control
- T/C [6]: 145 % of control

Compound: Oc1c(CN2CCCCC2)ccc2cccnc12
- survivor count [5]: 6 of 6
- survivor count [6]: 0 of 6
- survivor count [7]: 0 of 6
- survivor count [3]: 0 of 6

Compound: CC(C)COCSCC(NC(=O)CNC(=O)C(Cc1ccccc1)NC(=O)CNC(=O)C(CSC(c1ccccc1)(c1ccccc1)c1ccccc1)NC(c1ccccc1)(c1ccccc1)c1ccccc1)C(=O)O (configuration not stated)
- survivor count [8]: 6 of 6
- survivor count [9]: 6 of 6

Compound: O=C1OC(c2ccc(Cl)c(Cl)c2)C(=O)C1=O (configuration not stated)
- survivor count (dose: 30.0 mg/kg/injection, schedule: Q01DX005 (ip), vehicle: Klucel + Tween-80): 4 of 6
- survivor count (dose: 60.0 mg/kg/injection, schedule: Q01DX005 (ip), vehicle: Klucel + Tween-80): 0 of 6
- survivor count (dose: 120.0 mg/kg/injection, schedule: Q01DX005 (ip), vehicle: Klucel + Tween-80): 0 of 6
- survivor count (dose: 240.0 mg/kg/injection, schedule: Q01DX005 (ip), vehicle: Klucel + Tween-80): 0 of 6

Compound: Cc1cc(C(=O)N/N=C/c2ccccc2O)c2cc(Br)ccc2n1
- survivor count (dose: 6.25 mg/kg/injection, schedule: Q01DX009 (ip), vehicle: saline with Tween-80): 6 of 6
- survivor count [5]: 6 of 6

Compound: COC(=O)c1nc2c(n(C)/c1=N/C(=O)Nc1ccccc1)CCCC2
- T/C [10]: 130 % of control
- survivor count [5]: 6 of 6
- survivor count [6]: 4 of 6
- survivor count [7]: 0 of 6

Compound: Cc1ccc2ccc3ccc(C)nc3c2n1.O=[N+]([O-])O.O=[N+]([O-])O.[Cu]
- survivor count (dose: 25.0 mg/kg/injection, schedule: Q04DX002 (ip), vehicle: saline): 1 of 6
- survivor count (dose: 100.0 mg/kg/injection, schedule: Q04DX002 (ip), vehicle: suspension in saline): 0 of 6
- survivor count (dose: 200.0 mg/kg/injection, schedule: Q04DX002 (ip), vehicle: suspension in saline): 0 of 6
- survivor count (dose: 400.0 mg/kg/injection, schedule: Q04DX002 (ip), vehicle: suspension in saline): 0 of 6

Compound: COc1cc2c(c(OC)c1OC)-c1ccc(SC)c(=O)cc1[C@@H](NC(=O)Oc1ccccc1)CC2
- T/C (dose: 1.25 mg/kg/injection, schedule: Q01DX009 (ip), vehicle: Klucel (hydroxypropylcellulose) (HPC)): 125 % of control
- T/C (dose: 2.5 mg/kg/injection, schedule: Q01DX009 (ip), vehicle: Klucel (hydroxypropylcellulose) (HPC)): 130 and 141 % of control
- T/C (dose: 5.0 mg/kg/injection, schedule: Q01DX009 (ip), vehicle: Klucel (hydroxypropylcellulose) (HPC)): 146 % of control
- survivor count (dose: 20.0 mg/kg/injection, schedule: Q01DX009 (ip), vehicle: Klucel (hydroxypropylcellulose) (HPC)): 5 of 6

Compound: O=[N+]([O-])c1ccc(C=C2C=CN(CCO)C=C2)cc1
- survivor count [2]: 3 of 6

Compound: CC(C)C[N+]1(Cc2ccc(Cl)cc2Cl)CCOCC1
- survivor count (dose: 400.0 mg/kg/injection, schedule: Q04DX003 (ip), vehicle: saline): 1 of 6

Compound: O=C(O)c1cc2ccccc2c(N=Nc2cc(C(F)(F)F)ccc2Cl)c1O
- survivor count [1]: 5 of 5

Compound: CC(C)(C#N)OC(=O)c1cccc(C(=O)OC(C)(C)C#N)c1Sc1ccccc1
- survivor count (dose: 200.0 mg/kg/injection, schedule: Q01DX001 (ip), vehicle: other): 3 of 6
- survivor count (dose: 400.0 mg/kg/injection, schedule: Q01DX001 (ip), vehicle: other): 4 of 6

Compound: CCOC(=O)c1c[nH]c2c(ccc3cccnc32)c1=O
- survivor count [8]: 3 of 6
- survivor count [9]: 1 of 6

Compound: CN(C)CCCN1CCC2(CCC(C(C)(C)C)CC2)CC1
- survivor count [2]: 0 of 6

Compound: CSC(C#N)(c1ccccc1)N(C)C (configuration not stated)
- survivor count (dose: 200.0 mg/kg/injection, schedule: Q04DX003 (ip), vehicle: saline with Tween-80): 5 of 6
- survivor count (dose: 400.0 mg/kg/injection, schedule: Q04DX003 (ip), vehicle: saline with Tween-80): 0 of 6

Compound: O=C(Nc1ccc(Cl)cc1)Nc1nnc2ncc3c(n12)CCCCCCCCCC3
- survivor count [4]: 6 of 6

Compound: CC(=O)OCC1OC([Se][As](C)C)C(OC(C)=O)C(OC(C)=O)C1OC(C)=O (configuration not stated)
- T/C [10]: 126 and 128 % of control

Compound: CSCCC(NC(=O)CN(C)C(=O)OCc1ccccc1)C(=O)O (configuration not stated)
- survivor count [2]: 0 of 6

— PubChem BioAssay AID330 (DTP/NCI, 2004)
